This passage reports binding results from PMC7146536.

No constants are given. Whether binding was seen depends on the method and setting. In cells and extracts the contact can be indirect. Binding can be weak; no strength is given.

The assay deals with T1, eukaryotic elongation factor 2 kinase (rat (endogenous in dorsal hippocampus)) (UniProt P70531).
T1 sequence: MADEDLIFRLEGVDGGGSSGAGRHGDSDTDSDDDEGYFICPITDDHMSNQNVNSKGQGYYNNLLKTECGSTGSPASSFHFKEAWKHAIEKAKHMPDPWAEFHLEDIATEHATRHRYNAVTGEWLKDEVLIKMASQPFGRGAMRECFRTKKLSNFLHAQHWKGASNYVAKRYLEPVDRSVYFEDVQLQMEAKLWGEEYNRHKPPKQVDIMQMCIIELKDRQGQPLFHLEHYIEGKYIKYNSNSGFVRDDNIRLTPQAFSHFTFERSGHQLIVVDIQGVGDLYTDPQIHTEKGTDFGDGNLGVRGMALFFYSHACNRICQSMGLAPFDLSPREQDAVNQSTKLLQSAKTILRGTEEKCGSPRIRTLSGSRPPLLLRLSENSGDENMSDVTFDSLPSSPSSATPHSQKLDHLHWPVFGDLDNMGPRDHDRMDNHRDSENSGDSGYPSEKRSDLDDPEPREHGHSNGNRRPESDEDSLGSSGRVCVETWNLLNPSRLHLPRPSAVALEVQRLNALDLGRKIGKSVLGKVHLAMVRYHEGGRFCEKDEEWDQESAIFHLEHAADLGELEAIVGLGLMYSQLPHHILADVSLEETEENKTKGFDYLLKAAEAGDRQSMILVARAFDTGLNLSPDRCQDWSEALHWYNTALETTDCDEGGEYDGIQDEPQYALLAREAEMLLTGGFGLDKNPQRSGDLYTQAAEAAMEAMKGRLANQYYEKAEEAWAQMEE
The assay can be described thus: co-IP; dorsal hippocampus lysate (500 ug protein) of aged rats, untreated or co-treated with Cf-hGP and L. plantarum for 4 weeks; IP lysis buffer 25 mM Tris-HCl pH 7.4, 150 mM NaCl, 1% NP-40, EDTA, 5% glycerol; eEF2K antibody 1:50 overnight at 4 C, Protein A/G magnetic beads; blot probed for p-JNK and p-eEF2K.

With “c-Jun N-terminal kinase (rat (endogenous in dorsal hippocampus)) (enzyme)”, the binding entry is given as “binds”.
